Data reported in article PMC8593154.

Columns and labels:
[1] = molecular target: γB2ΔICD-EC5-VenusΔN3C9-P3 (mouse) (UniProt Q91XX7); assay: FRET or BRET; Venus/mTQ2 ratio imaging (405 nm excitation of mTQ2, IMD) at cell adhesion sites of aggregates of K562 cells individually expressing donor and acceptor constructs
[2] = molecular target: γB2ΔICD-EC5-VenusΔN3C9-P3 (mouse) (UniProt Q91XX7); assay: FRET or BRET; Venus/mTQ2 ratio imaging at mTQ2- and Venus-positive cell adhesion sites of co-cultured K562 cells co-expressing N-cadherin with one FRET indicator
[3] = molecular target: γB2ΔICD-EC5-VenusΔN3C9-P3 (mouse) (UniProt Q91XX7); assay: cell aggregation assay; K562 cells individually expressing the constructs, co-cultured, rotated at 30 rpm overnight at 37 °C; aggregates observed by confocal microscopy

binding [1]: binds
binding [2]: binds
binding [3]: binds
Substance: γB2ΔICD-EC1-G4S-mTQ2ΔC6 (from UniProt Q91XX7) (receptor)

No constants are given. Whether binding was seen depends on the method and setting. A result given as binding can be weak or reduced; the word gives no strength. For part of these data: In cells and extracts the contact can be indirect.
